In experiment [1] the target is T1, MBP-T1A (first 25 residues of arrestin-3 fused to MBP).
T1 chain: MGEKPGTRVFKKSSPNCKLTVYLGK
The experiment can be described thus: pull-down; MBP fusions (10-30 μg) immobilised on amylose resin, 1 h 4 °C; purified kinase (10 μg in 20 mM Tris/150 mM NaCl) added 2 h 4 °C; washed with 50 mM HEPES-Na pH 7.3, 150 mM NaCl; eluted with 50 mM maltose; SDS-PAGE and Western blot; both purified. The following applies: remark: other sources report otherwise.

The chains behind the UniProt entries cited, without tags or fusion partners.
UniProt P32120: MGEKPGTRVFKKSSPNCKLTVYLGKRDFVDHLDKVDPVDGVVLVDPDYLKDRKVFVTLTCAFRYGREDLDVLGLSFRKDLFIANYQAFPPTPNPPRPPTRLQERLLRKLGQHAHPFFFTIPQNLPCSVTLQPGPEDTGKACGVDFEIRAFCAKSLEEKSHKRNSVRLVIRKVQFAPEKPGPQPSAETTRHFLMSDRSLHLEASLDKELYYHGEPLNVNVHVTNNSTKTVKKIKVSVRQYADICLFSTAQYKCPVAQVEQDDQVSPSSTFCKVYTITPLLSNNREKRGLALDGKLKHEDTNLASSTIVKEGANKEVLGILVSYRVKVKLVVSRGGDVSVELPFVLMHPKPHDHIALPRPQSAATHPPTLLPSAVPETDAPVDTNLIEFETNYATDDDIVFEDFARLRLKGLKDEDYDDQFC

The target in experiment [2] is MBP-arrestin-3 (full-length arrestin-3 fused to MBP) (UniProt P32120). Described as above.

These are yes or no findings as the source states them, for the method shown. Some entries that bind do so weakly or less than the wild type. Sequences can lack the tags named with a protein.

B1: GST-MKK4, P45985 1-399 (enzyme)
chain: MAAPSPSGGGGSGGGSGSGTPGPVGSPAPGHPAVSSMQGKRKALKLNFANPPFKSTARFTLNPNPTGVQNPHIERLRTHSIESSGKLKISPEQHWDFTAEDLKDLGEIGRGAYGSVNKMVHKPSGQIMAVKRIRSTVDEKEQKQLLMDLDVVMRSSDCPYIVQFYGALFREGDCWICMELMSTSFDKFYKYVYSVLDDVIPEEILGKITLATVKALNHLKENLKIIHRDIKPSNILLDRSGNIKLCDFGISGQLVDSIAKTRDAGCRPYMAPERIDPSASRQGYDVRSDVWSLGITLYELATGRFPYPKWNSVFDQLTQVVKGDPPQLSNSEEREFSPSFINFVNLCLTKDESKRPKYKELLKHPFILMYEERAVEVACYVCKILDQMPATPSSPMYVD
In the case of B1, the binding result in experiment [1] was “binds”.

B2: GST-MKK4 (enzyme, UniProt P45985 1-399)
chain: B1 chain
On to B2, for which the binding entry in experiment [2] is given as “binds”.

B3: JNK3α2, P53779 1-464 (enzyme)
chain: MSLHFLYYCSEPTLDVKIAFCQGFDKQVDVSYIAKHYNMSKSKVDNQFYSVEVGDSTFTVLKRYQNLKPIGSGAQGIVCAAYDAVLDRNVAIKKLSRPFQNQTHAKRAYRELVLMKCVNHKNIISLLNVFTPQKTLEEFQDVYLVMELMDANLCQVIQMELDHERMSYLLYQMLCGIKHLHSAGIIHRDLKPSNIVVKSDCTLKILDFGLARTAGTSFMMTPYVVTRYYRAPEVILGMGYKENVDIWSVGCIMGEMVRHKILFPGRDYIDQWNKVIEQLGTPCPEFMKKLQPTVRNYVENRPKYAGLTFPKLFPDSLFPADSEHNKLKASQARDLLSKMLVIDPAKRISVDDALQHPYINVWYDPAEVEAPPPQIYDKQLDEREHTIEEWKELIYKEVMNSEEKTKNGVVKGQPSPSGAAVNSSESLPPSSSVNDISSMSTDQTLASDTDSSLEASAGPLGCCR
In the case of B3, the binding entry in experiment [1] is listed as “binds”.

(Values after PMC4751492.)
